Data published in patent US20260207760A1, “COMBINATIONS OF CD33 ANTIBODY DRUG CONJUGATE WITH CHEMOTHERAPEUTIC AGENTS” (Glykos Biomedical Oy, priority 2022, published 2026).

Experiments:
[1] = system: KG-1 cells; experiment: Toxicity of chemotherapeutic agents, KG-1 cells (PrestoBlue viability); assay type: cell-based; details: Homo sapiens, 96 h, 4 days
Description: Toxicity of chemotherapeutic agents was tested with high CD33-positive KG-1 cell line (DSMZ-German Collection of Microorganisms and Cell Cultures; Cat. No. ACC 14). KG-1 cells were seeded to non-treated 96-well plate 15000 cells/well and diluted compounds were added to cells in duplicates. Dilution series (1:10) of compounds were prepared starting from 20 μM to 0.2 nM and when added to cells they diluted 2× more. Cell control was untreated cells in culture medium.
Cells with chemotherapeutic agents were cultured for 4 days and then the viability was measured with PrestoBlue cell viability reagent according to the manufacturer's (Life Technologies) instructions. Results were calculated from 5-hour Prestoblue reaction and the percentage of viable cells was calculated by dividing the sample absorbance value with cell control value.

[2] = system: HL-60 cells; experiment: Toxicity assay of chemotherapeutic agents, HL-60 cells (PrestoBlue viability); assay type: cell-based; details: Homo sapiens, 96 h, 4 days incubation
Description: HL-60 cells (ATCC®, cat. no. CCL-240™), derived from human promyelocytic leukemia, were cultured in Iscove's Modified Dulbecco's Medium (Gibco, Life Technologies) supplemented with 20% heat inactivated FBS (Gibco, Life Technologies).
For toxicity assay, HL-60 cells were seeded for 7500 cells/well of 96-well plate. The chemotherapeutic agents were added as 2-fold stock solutions and incubated with cells for 5 days.
All other compounds were tested at concentrations 0.1, 1, 10, 100, 1000, and 10 000 nM. […] The percentage of viable cells was calculated by dividing the sample absorbance value with untreated cell control value and multiplying by 100%.
All compounds were tested at concentrations of 0.1-10 000 nM.
IC50 values were determined after average % and standard deviations were transferred to GraphPad Prism 9.1.2. Dose-response curves were generated and the IC50% values of the samples were obtained by non-linear regression analysis (Inhibitor vs. response, variable slope (four parameters)) using the software.

Q: `CO[C@@H]1[C@H](N(C)C(=O)c2ccccc2)C[C@H]2O[C@]1(C)n1c3ccccc3c3c4c(c5c6ccccc6n2c5c31)C(=O)NC4` [Midostaurin] was tested. Which IC50 [1] did it give?
A: Its IC50 is 517 nM.

Q: And the IC50 [2]?
A: The IC50 was 800 nM.
